# Source: the supplement of paper PMC8728848
# This is one part of the list.
# Legend:
# Assay in all cases: glycan array binding signal (z-score within array); higher = stronger binding
# Settings in all cases: glycan notation: IUPAC condensed, linker removed
# [1] = biological target: Neu5Ac(a2-6)Gal(b1-4)GlcNAc(b1-3)Gal(b1-4)GlcNAc(b1-3)GalNAc
# Summary of the method: (§1)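 Arrays were curated from the Consortium for Functional Glycomics database, 3228 in total, and kept only where the protein sequence was available. Binding is expressed as a within-array Z-score. This score was averaged across arrays of the same protein sequence at different concentrations or buffers and across linkers, and negative values can be read as non-binding.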
# [2] = biological target: Neu5Ac(a2-6)Gal(b1-4)GlcNAc(b1-3)Gal(b1-4)GlcNAc(b1-3)[Neu5Ac(a2-6)Gal(b1-4)GlcNAc(b1-3)Gal(b1-4)GlcNAc(b1-6)]GalNAc
# Summary of the method: as §1
# [3] = biological target: Neu5Ac(a2-6)Gal(b1-4)GlcNAc(b1-3)Gal(b1-4)GlcNAc(b1-6)[Gal(b1-3)]GalNAc
# Summary of the method: as §1
# [4] = biological target: Neu5Ac(a2-6)Gal(b1-4)GlcNAc(b1-3)Gal(b1-4)[Fuc(a1-3)]GlcNAc(b1-3)Gal(b1-4)[Fuc(a1-3)]GlcNAc
# Summary of the method: as §1
# [5] = biological target: Neu5Ac(a2-6)Gal(b1-4)GlcNAc(b1-3)GalNAc
# Summary of the method: as §1
# [6] = biological target: Neu5Ac(a2-6)Gal(b1-4)GlcNAc(b1-3)[Neu5Ac(a2-6)Gal(b1-4)GlcNAc(b1-6)]GalNAc
# Summary of the method: as §1
# [7] = biological target: Neu5Ac(a2-6)Gal(b1-4)GlcNAc(b1-6)GalNAc
# Summary of the method: as §1
# [8] = biological target: Neu5Ac(a2-6)Gal(b1-4)GlcNAc(b1-6)[Gal(b1-3)GlcNAc(b1-3)]Gal(b1-4)Glc
# Summary of the method: as §1
# [9] = biological target: Neu5Ac(a2-6)Gal(b1-4)GlcNAc(b1-6)[Gal(b1-3)]GalNAc
# Summary of the method: as §1
# [10] = biological target: Neu5Ac(a2-6)Gal(b1-4)GlcNAc6S
# Summary of the method: as §1
# Neu5Ac(a2-6)GalNAc = biological target: Neu5Ac(a2-6)GalNAc
# Summary of the method: as §1
# [11] = biological target: Neu5Ac(a2-6)GalNAc(b1-4)GlcNAc
# Summary of the method: as §1
# [12] = biological target: Neu5Ac(a2-6)GalNAc(b1-4)GlcNAc6S
# Summary of the method: as §1
# [13] = biological target: Neu5Ac(a2-6)GlcNAc(b1-4)GlcNAc
# Summary of the method: as §1
# [14] = biological target: Neu5Ac(a2-6)GlcNAc(b1-4)GlcNAc(b1-4)GlcNAc
# Summary of the method: as §1
# Neu5Ac(a2-8)Neu5Ac = biological target: Neu5Ac(a2-8)Neu5Ac
# Summary of the method: as §1
# [15] = biological target: Neu5Ac(a2-8)Neu5Ac(a2-3)Gal(b1-3)GalNAc(b1-4)[Neu5Ac(a2-3)]Gal(b1-4)Glc
# Summary of the method: as §1
# [16] = biological target: Neu5Ac(a2-8)Neu5Ac(a2-3)Gal(b1-3)GalNAc(b1-4)[Neu5Ac(a2-8)Neu5Ac(a2-3)]Gal(b1-4)Glc
# Summary of the method: as §1
# [17] = biological target: Neu5Ac(a2-8)Neu5Ac(a2-3)Gal(b1-4)Glc
# Summary of the method: as §1
# [18] = biological target: Neu5Ac(a2-8)Neu5Ac(a2-3)Gal(b1-4)GlcNAc
# Summary of the method: as §1
# [19] = biological target: Neu5Ac(a2-8)Neu5Ac(a2-3)[Gal(b1-3)GalNAc(b1-4)]Gal(b1-4)Glc
# Summary of the method: as §1
# [20] = biological target: Neu5Ac(a2-8)Neu5Ac(a2-3)[GalNAc(b1-4)]Gal(b1-4)Glc
# Summary of the method: as §1
# [21] = biological target: Neu5Ac(a2-8)Neu5Ac(a2-8)Neu5Ac
# Summary of the method: as §1
# [22] = biological target: Neu5Ac(a2-8)Neu5Ac(a2-8)Neu5Ac(a2-3)Gal(b1-4)Glc
# Summary of the method: as §1
# [23] = biological target: Neu5Ac(a2-8)Neu5Ac(a2-8)Neu5Ac(a2-3)[Gal(b1-3)GalNAc(b1-4)]Gal(b1-4)Glc
# Summary of the method: as §1
# [24] = biological target: Neu5Ac(a2-8)Neu5Ac(a2-8)Neu5Ac(a2-3)[GalNAc(b1-4)]Gal(b1-4)Glc
# Summary of the method: as §1
# [25] = biological target: Neu5Ac(a2-8)Neu5Ac(a2-8)Neu5Ac(a2-8)Neu5Ac(a2-3)[GalNAc(b1-4)]Gal(b1-4)Glc
# Summary of the method: as §1
# [26] = biological target: Neu5Ac(a2-8)Neu5Gc(a2-3)Gal(b1-4)GlcNAc
# Summary of the method: as §1
# [27] = biological target: Neu5Ac(b2-6)Gal(b1-4)GlcNAc
# Summary of the method: as §1
# Neu5Ac(b2-6)GalNAc = biological target: Neu5Ac(b2-6)GalNAc
# Summary of the method: as §1
# [28] = biological target: Neu5Ac9Ac(a2-3)Gal(b1-3)GlcNAc
# Summary of the method: as §1
# [29] = biological target: Neu5Ac9Ac(a2-3)Gal(b1-4)GlcNAc
# Summary of the method: as §1
# [30] = biological target: Neu5Ac9Ac(a2-6)Gal(b1-4)GlcNAc
# Summary of the method: as §1
# [31] = biological target: Neu5Gc(a2-3)Gal(b1-3)GlcNAc
# Summary of the method: as §1
# [32] = biological target: Neu5Gc(a2-3)Gal(b1-3)[Fuc(a1-4)]GlcNAc
# Summary of the method: as §1
# Neu5Gc(a2-3)Gal(b1-4)Glc = biological target: Neu5Gc(a2-3)Gal(b1-4)Glc
# Summary of the method: as §1
# [33] = biological target: Neu5Gc(a2-3)Gal(b1-4)GlcNAc
# Summary of the method: as §1
# [34] = biological target: Neu5Gc(a2-3)Gal(b1-4)GlcNAc(b1-3)Gal(b1-4)GlcNAc(b1-2)Man(a1-3)[Neu5Gc(a2-3)Gal(b1-4)GlcNAc(b1-3)Gal(b1-4)GlcNAc(b1-2)Man(a1-6)]Man(b1-4)GlcNAc(b1-4)GlcNAc
# Summary of the method: as §1
# [35] = biological target: Neu5Gc(a2-3)Gal(b1-4)[Fuc(a1-3)]GlcNAc
# Summary of the method: as §1
# [36] = biological target: Neu5Gc(a2-6)Gal(b1-4)GlcNAc
# Summary of the method: as §1
# Neu5Gc(a2-6)GalNAc = biological target: Neu5Gc(a2-6)GalNAc
# Summary of the method: as §1
# [37] = biological target: Neu5Gc(a2-8)Neu5Ac(a2-3)Gal(b1-4)GlcNAc
# Summary of the method: as §1
# [38] = biological target: Neu5Gc(a2-8)Neu5Gc(a2-3)Gal(b1-4)GlcNAc
# Summary of the method: as §1
# [39] = biological target: Neu5Gc(a2-8)Neu5Gc(a2-3)Gal(b1-4)GlcNAc(b1-3)Gal(b1-4)GlcNAc
# Summary of the method: as §1
# [40] = biological target: Neu5Gc(a2-8)Neu5Gc(a2-6)Gal(b1-4)GlcNAc
# Summary of the method: as §1
# [41] = biological target: Neu5Gc(b2-6)Gal(b1-4)GlcNAc
# Summary of the method: as §1
binder,measurement,setting,value
"SspB A3vp1 (Streptococcus gordonii), Q54186 (protein) MTNEADYQAKLAAYQTELARVQKANADAKATYEKAVEDNKAKNAAIKAENEEIKQRNAVAKTDYEAKLAKYEADLAKYKKEFAAYTAALAEAESKKKQDGYLSEPRSQSLNFKSEPNAIRTIDSSVHQYGQQELDALVKSWGISPTNPDRKKSRAYSYFNAINSNNTYAKLVLEKDKPVDVTYTGLKNSSFNGKKISKVVYTYTLKETGFNDGTKMTMFASSDPTVTAWYNDYFTSTNINVKVKFYDEEGQLMNLTGGLVNFSSLNRGNGSGAIDKDAIESVRNFNGRYIPISGSSIKIHENNSAYADSSNAEKSLGARWNTSEWDTTSSPNNWYGAIVGEITQSEISFNMASSKSGNIWFAFNSNINAIGVPTKPVAPTAPTQPMYETEKPLEPAPVAPSYENEPTPPVKTPDQPEPSKPAAALEHHHHHH",glycan array binding signal (z-score),[1],-0.196
same,glycan array binding signal (z-score),[2],1.79
same,glycan array binding signal (z-score),[3],-0.002
same,glycan array binding signal (z-score),[4],0.696
same,glycan array binding signal (z-score),[5],-0.583
same,glycan array binding signal (z-score),[6],0.337
same,glycan array binding signal (z-score),[7],1.8
same,glycan array binding signal (z-score),[8],-0.143
same,glycan array binding signal (z-score),[9],2.82
same,glycan array binding signal (z-score),[10],-0.165
same,glycan array binding signal (z-score),Neu5Ac(a2-6)GalNAc,-1.27
same,glycan array binding signal (z-score),[11],-1.1
same,glycan array binding signal (z-score),[12],-0.674
same,glycan array binding signal (z-score),[13],-0.862
same,glycan array binding signal (z-score),[14],-0.788
same,glycan array binding signal (z-score),Neu5Ac(a2-8)Neu5Ac,-0.582
same,glycan array binding signal (z-score),[15],-0.542
same,glycan array binding signal (z-score),[16],-0.804
same,glycan array binding signal (z-score),[17],-0.601
same,glycan array binding signal (z-score),[18],-1.25
same,glycan array binding signal (z-score),[19],-0.44
same,glycan array binding signal (z-score),[20],-0.166
same,glycan array binding signal (z-score),[21],-1.14
same,glycan array binding signal (z-score),[22],-0.842
same,glycan array binding signal (z-score),[23],-0.82
same,glycan array binding signal (z-score),[24],-0.524
same,glycan array binding signal (z-score),[25],2.18
same,glycan array binding signal (z-score),[26],-0.152
same,glycan array binding signal (z-score),[27],-0.329
same,glycan array binding signal (z-score),Neu5Ac(b2-6)GalNAc,-0.184
same,glycan array binding signal (z-score),[28],-0.766
same,glycan array binding signal (z-score),[29],-1.39
same,glycan array binding signal (z-score),[30],-0.18
same,glycan array binding signal (z-score),[31],-0.928
same,glycan array binding signal (z-score),[32],-0.907
same,glycan array binding signal (z-score),Neu5Gc(a2-3)Gal(b1-4)Glc,-0.538
same,glycan array binding signal (z-score),[33],-0.513
same,glycan array binding signal (z-score),[34],0.951
same,glycan array binding signal (z-score),[35],0.014
same,glycan array binding signal (z-score),[36],0.556
same,glycan array binding signal (z-score),Neu5Gc(a2-6)GalNAc,0.207
same,glycan array binding signal (z-score),[37],-0.769
same,glycan array binding signal (z-score),[38],-0.72
same,glycan array binding signal (z-score),[39],-1.08
same,glycan array binding signal (z-score),[40],-0.817
same,glycan array binding signal (z-score),[41],-0.252
